Library screen at single concentrations

Sequences of proteins named here, by UniProt entry; tags and fusion partners are left off. Residues count along the entry.
UniProt Q4DA54, 1-478: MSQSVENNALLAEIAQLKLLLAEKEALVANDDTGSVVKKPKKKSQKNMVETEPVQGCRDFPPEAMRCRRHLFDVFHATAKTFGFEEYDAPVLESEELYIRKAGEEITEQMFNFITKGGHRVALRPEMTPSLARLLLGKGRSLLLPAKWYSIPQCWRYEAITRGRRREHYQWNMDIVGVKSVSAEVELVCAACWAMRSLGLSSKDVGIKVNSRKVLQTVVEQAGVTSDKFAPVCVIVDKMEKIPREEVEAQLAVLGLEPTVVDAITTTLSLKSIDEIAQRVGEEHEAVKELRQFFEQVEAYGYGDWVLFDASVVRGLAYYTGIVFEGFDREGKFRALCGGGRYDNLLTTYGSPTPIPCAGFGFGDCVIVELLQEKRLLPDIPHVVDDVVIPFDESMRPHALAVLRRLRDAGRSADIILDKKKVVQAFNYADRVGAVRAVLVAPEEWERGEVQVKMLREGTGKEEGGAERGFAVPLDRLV
UniProt A4I591, 1-473: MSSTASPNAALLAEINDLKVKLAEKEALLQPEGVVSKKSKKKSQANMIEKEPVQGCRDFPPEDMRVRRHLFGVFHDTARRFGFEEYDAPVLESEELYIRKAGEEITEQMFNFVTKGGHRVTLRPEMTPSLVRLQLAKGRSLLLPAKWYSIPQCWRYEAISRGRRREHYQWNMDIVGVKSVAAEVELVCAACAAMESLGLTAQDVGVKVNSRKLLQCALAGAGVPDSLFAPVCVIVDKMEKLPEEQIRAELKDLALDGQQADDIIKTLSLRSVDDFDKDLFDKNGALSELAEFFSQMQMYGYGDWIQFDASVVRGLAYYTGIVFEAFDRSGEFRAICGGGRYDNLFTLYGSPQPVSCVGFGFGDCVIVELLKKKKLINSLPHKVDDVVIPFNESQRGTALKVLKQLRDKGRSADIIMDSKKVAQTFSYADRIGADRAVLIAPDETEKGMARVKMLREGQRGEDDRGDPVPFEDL

Measurements from “University of Dundee, Small-Polar-MMV Screening Library” (2021), ChEMBL document CHEMBL3988442.

T. brucei: 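Whole-parasite assay of Trypanosoma brucei over 72 hours; the read-out is not stated. Compounds at 30 µM. The record gives no direction; compounds that gave an IC50 in retests scored well above the rest, so higher reads as stronger inhibition. Values scatter widely below zero; nearly all retest evidence comes from the higher of the two concentrations used. Size under these conditions: about 64,000 compounds, about 940 of them at 50% or above in at least one test.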
TcHisRS: 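Histidine-tRNA ligase, Trypanosoma cruzi CL Brener (UniProt Q4DA54). Enzyme assay of histidyl-tRNA synthetase; the read-out is not stated. Concentration: 30 µM. The record gives no direction; compounds that gave an IC50 in retests scored well above the rest, so higher reads as stronger inhibition. Size under these conditions: about 69,000 compounds, about 31 of them at 50% or above in at least one test.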
LiHisRS: 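Histidine-tRNA ligase, Leishmania infantum (UniProt A4I591). Enzyme assay of histidyl-tRNA synthetase; the read-out is not stated. Compounds at 30 µM. Direction is inferred from retests: higher values go with stronger inhibition. The assay is labelled LdHisRS but filed under L. infantum. Of about 69,000 compounds tested this way, about 410 (0.6%) reached 50% or more in at least one test.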

Values are the deposited “Percent Effect”, in %. How 0% and 100% were set is not recorded. Most values in the screen are low, and negative values occur. This is an unselected part of the compounds tested. A dash means the value is not listed here; it may have been measured.

structure	T. brucei	TcHisRS	LiHisRS
CO[C@@H]1CCN(Cc2ccoc2)C[C@@H]1Cc1ccccc1.O=C(O)C(F)(F)F	28.47%	-	-
Cc1ccsc1-c1nc(CN(C)Cc2cc[nH]n2)c(C)o1	-2.797%	-1.117%	9.375%
O=C(CC1CC1)N[C@@H]1CN(Cc2cccnc2)C[C@@H]2CCCO[C@@H]21	-	6.863%	14.29%
O=C(Cc1cccc(O)c1)N1CCCC(O)(CN2CCCC2)CC1 (stereo not shown)	-	12.41%	11.35%
[H][C@@]12CCN(C(=O)c3cccs3)C[C@@]1([H])O[C@H](c1nnc(C3CC3)o1)C2	-28.03%	-	-
[H][C@@]12CCN(Cc3scnc3C)C[C@]1(c1nnc(C)o1)CCO2	5.066%	-	-
CCCc1noc(CNc2ccc(C(=O)N3CCCC3)cc2C)n1	-14.45%	5.172%	1.739%
O=C(Cn1cccn1)N1CCC(Oc2cnccn2)CC1	9.902%	2.062%	6.957%
CC(C)n1ncc2c1NC(=O)C(C#N)C21CCCCC1 (stereo not shown)	6.095%	2.521%	5.263%
COCC(=O)NCC1Cn2nnc(-c3ccncc3)c2CO1 (stereo not shown)	-	6.897%	24%
CCN(CC)C(=O)Cn1ccc2cc(NC(=O)C3CCCO3)ccc21 (stereo not shown)	5.528%	2.662%	10.4%
CC(=O)NCC1CCCN(Cc2nc(Cc3ccccc3F)no2)C1 (stereo not shown)	-17.5%	-1.345%	20%
[H][C@]12CC[C@]([H])(CN(Cc3ccc(F)cc3)C1)N(C(=O)Cc1cccnc1)C2	-40.35%	-	-
COc1ccc(-c2n[nH]cc2CN(C)Cc2nccn2C)c(F)c1	-12.03%	2.128%	13.43%
CCN(CC)C(=O)N1CCN(C2=NCC(C)S2)CC1 (stereo not shown)	-13.93%	1.935%	-1.01%
CC1CN(CC(=O)N2CCOCC2)CCN1Cc1nccn1C (stereo not shown)	-	9.621%	18.35%
CC(=O)NCC1CCN(C(=O)c2csc(-c3ccc(C)cc3C)n2)CC1	56.57%	1.916%	21.54%
Cc1cccc(COc2ccc(C(C)NC(=O)CNC(N)=O)cc2)c1 (stereo not shown)	6.871%	8.04%	8.235%
CCC(=O)Nc1ccccc1Sc1nc(Br)nn1C	2.373%	-2%	2.74%
O=C(C1CCCCN1Cc1nc(-c2ccco2)no1)N1CCCC1 (stereo not shown)	-37.96%	0.3831%	9.231%
CCc1ccc(C(NC(=O)CN(C)S(C)(=O)=O)C(C)(C)C)o1 (stereo not shown)	-27.69%	10.34%	0.8929%
Cc1ccc(OCCCNC(=O)Cc2nc3ncccn3n2)cc1	-21.6%	5.882%	12.28%
CCC1(CC)Cc2ccccc2-c2nc(NCCO)[nH]c(=O)c21	24.78%	-1.087%	17.14%
c1coc(-c2noc(CN3CCCC(Cn4cncn4)C3)n2)c1 (stereo not shown)	16.66%	3.008%	-7.865%
O=C(NC[C@H]1OC[C@@H](NC2CCOCC2)[C@@H]1O)Nc1ccccc1	-49.13%	7.609%	-6.757%
O=C(O)C(F)(F)F.O=C(O)C(F)(F)F.[H][C@@]12COC[C@]1([H])[C@@H](OCc1cccnc1)CN2Cc1ccco1	-73.54%	-	-
CCn1cc(CN2CCCN(C(=O)Cc3ccc(C)nc3)CC2)cn1	-3.9%	-0.3774%	10.67%
CS(=O)(=O)c1ccc(NCc2ccccc2)cn1	-46.17%	3.185%	15.49%
Cc1cnn(CC2CCCCN2C(=O)c2ccc(NC3CC3)nc2)c1 (stereo not shown)	-2.129%	5.572%	13.89%
CS(=O)(=O)NC1CCN(C(=O)NCCc2ccccc2F)CC1	4.507%	-0.3831%	24.62%
CC1CN(C(=O)C2(c3ccc(F)cc3F)CCOCC2)CCO1 (stereo not shown)	-5.696%	0%	12.12%
COCCN(Cc1cnn(C)c1)CC1CCOC1 (stereo not shown)	-1.378%	7.182%	9.639%
CCS(=O)(=O)c1ccccc1N1CCC(NC2CCCC2)CC1	22.61%	6.433%	20%
Cl.Cl.OC(CN1CCN(Cc2ccc(F)cc2)CC1)C1CC1 (stereo not shown)	-63.27%	-	-
COc1cc(CN(CCCN(C)C)Cc2ccccn2)cc2c1OCO2.O=C(O)CC(O)(CC(=O)O)C(=O)O	-4.915%	-	-
Cc1ccc(-c2noc(C(O)CC(C)C)n2)nn1 (stereo not shown)	-30.39%	-2.128%	9.375%
Cc1cn2c(n1)CCC(NC(=O)c1cc(C3CC3)[nH]n1)C2 (stereo not shown)	9.147%	1.13%	8.621%
COCCOc1ncccc1-c1noc([C@@H]2CCCN2C2CCC2)n1	-10.43%	4.348%	20.27%
O=C1CCCN1C(CNS(=O)(=O)C1CC1)Cc1cccc(F)c1 (stereo not shown)	7.214%	-8.434%	23.08%
CC(NC(=O)N1CCC(OCc2ccccc2)CC1)c1nncn1C (stereo not shown)	-7.917%	-0.3774%	20.27%
CC(NCc1ccc(F)cc1)c1ccc(OCC(=O)NC2CC2)cc1 (stereo not shown)	-13.42%	1.88%	-2.703%
CCN1CCOCC2(CCCN(C(=O)c3ccccc3F)C2)C1 (stereo not shown)	-	3.365%	15.6%
O=C(O)C(F)(F)F.[H][C@@]12CCCO[C@]1([H])[C@@H](OCc1cccnc1)CN2C(=O)c1occc1C	55.38%	-	-
Cc1nc(CO[C@@H]2CN(Cc3cccnc3)[C@@H]3COC[C@@H]32)cs1	-	1.754%	11.29%
Cc1cc(C)n(CC2CN(CC3CCCC3)CCO2)n1 (stereo not shown)	-1.342%	5.172%	6.957%
COc1ncccc1CN1C[C@H](C(=O)N2CCCO2)[C@@H]2CCO[C@@H]2C1	-	2.488%	19.44%
CC(C)N(C(=O)N1CCn2cncc2C1)C(C)C	1.131%	-0.578%	17.33%
COCCN1CCN(Cc2ccco2)Cc2ccc(C)nc21	-	8.602%	10.53%
Cn1nnnc1SC1CCN(c2ccccc2Cl)C1=O (stereo not shown)	-29.65%	7.182%	1.042%
FC(F)(F)Oc1ccc(CN2CCCC(n3cncn3)C2)cc1 (stereo not shown)	-53.68%	6.667%	13.33%
[H][C@@]12CN(Cc3ccc(C#N)cc3)C[C@]1([H])OCC(=O)N2	-6.115%	-	-
Cc1ncsc1CN1C[C@@H](O)[C@](O)(CNC(=O)c2ccccn2)C1	-24.04%	3.39%	14.29%
CCC(CC)CN1CCC(n2cc(C3CCCC3)nn2)CC1	12.28%	6.704%	9.375%
CC(C)(C)c1nccc(N2CCCCC2CCNS(C)(=O)=O)n1 (stereo not shown)	3.498%	1.327%	22.12%
COCCC1(C(=O)O)CCCN(CCOCc2ccccc2)C1 (stereo not shown)	-6.738%	0%	0%
Cc1csc(CNC(=O)N2CCN(Cc3cc(C)on3)CC2)n1	6.006%	2.89%	9.649%
CCC1CN(CC(=O)NC2(C#N)CCCC2)CCN1CCOC (stereo not shown)	-16.98%	1.961%	10%
Cc1csc2c(N3CCC(NCCCc4ccncc4)CC3)ncnc12	11.37%	10.88%	31.13%
CCn1nc(C)c2nc(C(C)C)nc(NCC(C)C)c21	23.14%	4.348%	13.79%
O=C(NCCC(O)c1cccs1)c1ccc(Br)o1 (stereo not shown)	-9.228%	4.444%	9.402%
CCCc1nnc(NC2CCN(C3CCSCC3)CC2)o1	-28.79%	3.947%	12.5%
COc1ccc(C[C@H]2CN(C3CCOCC3)CC[C@@H]2OCC2CC2)cc1	-	-1.942%	21.36%
Cn1cc(CNCCc2cccnc2)c(-c2cccnc2)n1	-16.32%	-2.105%	10.96%
COCCNC(=O)[C@@H](C)[C@@H]1CCc2c(C)cc(OCC(=O)O)c(C)c2C1	-	3.483%	24.32%
CCCN(Cc1cnn(C)c1)S(=O)(=O)c1cccc(F)c1C#N	-15.7%	12%	20.41%
CCOc1cc(C)nc(N2CCN(C(=O)c3cnc[nH]3)CC2)n1	-13.91%	1.754%	14.55%
Cn1ncc2c(=O)[nH]c(CN3CCCC3c3cccs3)nc21 (stereo not shown)	-26.73%	4.511%	-25.84%
N#Cc1ccc(C(=O)N2CCC3(CC2)C(=O)Nc2ccccc23)cn1	5.658%	0.8475%	22.64%
C1CCN(Cc2nnn3c2CN(CC2CC2)CCC3)C1	-73.28%	6.557%	8.772%
Cc1nc(COC[C@H]2CC[C@H]3NCC[C@H]3O2)cs1	-	8.589%	18.8%
CNC(=O)c1ccc(Cn2ccnc2S(C)(=O)=O)cc1	3.745%	4.938%	19.35%
CN1CCC(N2CC[C@H](c3nc4ccc(C(F)(F)F)cc4[nH]3)C2)CC1	29.02%	2.97%	8.333%
COc1ncc(CN2CCOC(C)(C(=O)N3CCOCC3)C2)cn1 (stereo not shown)	-1.848%	10%	20.62%
Cc1ccccc1-c1cncc(C2CCN(C(=O)CN(C)C)CC2)n1	-32.68%	1.622%	8.333%
CN1CC[C@H](c2ccccc2)[C@@H]2[C@H]1CCCCN2C(=O)c1cnccn1	-	5.946%	2.778%

5 of the entries, repeated:

{"structure": "CS(=O)(=O)c1ccc(NCc2ccccc2)cn1", "T. brucei": -46.17, "TcHisRS": 3.185, "LiHisRS": 15.49}
{"structure": "O=C(Cc1cccc(O)c1)N1CCCC(O)(CN2CCCC2)CC1", "stereo": "stereo not shown", "TcHisRS": 12.41, "LiHisRS": 11.35}
{"structure": "CCN(CC)C(=O)N1CCN(C2=NCC(C)S2)CC1", "stereo": "stereo not shown", "T. brucei": -13.93, "TcHisRS": 1.935, "LiHisRS": -1.01}
{"structure": "COCCNC(=O)[C@@H](C)[C@@H]1CCc2c(C)cc(OCC(=O)O)c(C)c2C1", "TcHisRS": 3.483, "LiHisRS": 24.32}
{"structure": "COc1ccc(C[C@H]2CN(C3CCOCC3)CC[C@@H]2OCC2CC2)cc1", "TcHisRS": -1.942, "LiHisRS": 21.36}